# Assay results taken from PMC7819943, “Rice protein-binding microarrays: a tool to detect cis-acting elements near promoter regions in rice”.
# Chains of the proteins cited; added tags and fusions are not shown.
# UniProt Q0JBA9, entry or part of it: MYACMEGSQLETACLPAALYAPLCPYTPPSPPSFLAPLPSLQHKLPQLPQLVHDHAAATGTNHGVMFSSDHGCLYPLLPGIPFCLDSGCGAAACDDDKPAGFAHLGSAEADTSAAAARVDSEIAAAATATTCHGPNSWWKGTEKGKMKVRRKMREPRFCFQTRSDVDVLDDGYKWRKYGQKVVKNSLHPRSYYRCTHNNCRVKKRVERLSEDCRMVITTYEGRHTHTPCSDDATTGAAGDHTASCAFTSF
# The list shows a part of the results.
# Target: OsWRKY34 (Oryza sativa, UniProt Q0JBA9 1-250)
# Assay: protein-binding microarray (RPBM); PBS, 2% BSA, 51.3 ng/ul salmon testes DNA, 50 uM zinc acetate, 200 nM TF, 25 C, 1 h; high values mean tight binding
# Details: protein: recombinant; tags: N-terminal polyhistidine and DsRed monomer fusion (pET32a); label: CyDye5-dUTP incorporated in the synthesized complementary strand; 3' TTTTT single-stranded linker to array surface; dsDNA, one strand shown
# Method in brief: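 Transcription factors were each fused at the N-terminus to a polyhistidine tag plus DsRed and expressed in E. coli BL21-CodonPlus before Ni–NTA purification. Binding to a double-stranded custom Agilent array was carried out with 200 nM protein at 25 °C for 1 h in PBS, 2% BSA, salmon testes DNA and 50 µM zinc acetate. The binding signal is per-feature fluorescence intensity, in arbitrary units, on an Axon 4000B scanner.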
row,Sequence,binding signal
1,AGACCCACAGTAATTAACCAGCGTAACCACCTTTCTTCCACGGAGTCACCTAGTGCAG,8350 fluorescence intensity (a.u.)
2,TAGCCATACTCTCTCTCTCTCTTCTCCACTCCTCTGATCGCGGAGTCACCTAGTGCAG,10200 fluorescence intensity (a.u.)
3,CGTGTTCGACATGTTACGCATATTTGATCTGTTCATGTTTCGGAGTCACCTAGTGCAG,9890 fluorescence intensity (a.u.)
4,GCAAACTTTATTGCTCCGCGTTCTTCCTTTCTCTGTGTTTCGGAGTCACCTAGTGCAG,8910 fluorescence intensity (a.u.)
5,ATATGTTTAAAAAAGTCAACGGCGTCAAACATTTAGGGATCGGAGTCACCTAGTGCAG,18600 fluorescence intensity (a.u.)
6,ACCCCTATAAATACCCACCATCTGCCGCGCCATCCCATCGCGGAGTCACCTAGTGCAG,9180 fluorescence intensity (a.u.)
7,CTCGTCTTCCCCACCCCTCGCCTCCTCGCGCGCTCGGTGACGGAGTCACCTAGTGCAG,8100 fluorescence intensity (a.u.)
8,CACCAATAGCTCGTTGTCGCTCACCGTCTCAGGTGAAGCTCGGAGTCACCTAGTGCAG,8490 fluorescence intensity (a.u.)
9,ATCGATCACCACGCCCACCTTCATCTCCTCCACGATGAACCGGAGTCACCTAGTGCAG,9740 fluorescence intensity (a.u.)
10,AGCGTCGTAGACTTTTTGCTGGTAGCGCCTTGCCATTCACCGGAGTCACCTAGTGCAG,8430 fluorescence intensity (a.u.)
11,TATACTAGTGTACTGCACTGCATGCCACTCATACTCACTACGGAGTCACCTAGTGCAG,10400 fluorescence intensity (a.u.)
12,TCGCTCTCATCCCCAAACTCGCAACCACCGCCCGCTCTCACGGAGTCACCTAGTGCAG,8080 fluorescence intensity (a.u.)
13,TTGGCTCTAATATCACTGGTCTACTATTGCGTTGTTTTATCGGAGTCACCTAGTGCAG,8300 fluorescence intensity (a.u.)
14,AAAAAGTCAACAGCGTTGAATTTTTAGAAACGGAGGAAGTCGGAGTCACCTAGTGCAG,8280 fluorescence intensity (a.u.)
15,TCTCTCTCGCTCGCTCACGCAGTCTCTCACCACGACTCTCCGGAGTCACCTAGTGCAG,11400 fluorescence intensity (a.u.)
16,ACATTAACTAACCGACTATAACTGATCACTGTATTAATTACGGAGTCACCTAGTGCAG,8180 fluorescence intensity (a.u.)
17,AAAAGTACACACTGCTTTGACTCAGGTCAAACTTGGACTTCGGAGTCACCTAGTGCAG,8060 fluorescence intensity (a.u.)
18,GCAACCACCGCCGCCTCGCCGCAGCATCACCCGCAGCCGCCGGAGTCACCTAGTGCAG,8220 fluorescence intensity (a.u.)
19,GTGGGTGGGTTTGGAGTTTGGACTGTTTAGGGCCTTTTGACGGAGTCACCTAGTGCAG,23300 fluorescence intensity (a.u.)
20,ACTGTCGTGCCACAGTGGACGTGTGCGGCAGGTGAAGCACCGGAGTCACCTAGTGCAG,49100 fluorescence intensity (a.u.)
21,ACTTCACTCGCACCGTGTCCGTGTGTTGCGTGTGTATATACGGAGTCACCTAGTGCAG,8100 fluorescence intensity (a.u.)

# Look-ups from the list:
# For binding signal, TCTCTCTCGCTCGCTCACGCAGTCTCTCACCACGACTCTCCGGAGTCACCTAGTGCAG shows 11400 fluorescence intensity (a.u.)
# For binding signal, ATATGTTTAAAAAAGTCAACGGCGTCAAACATTTAGGGATCGGAGTCACCTAGTGCAG shows 18600 fluorescence intensity (a.u.)
# For binding signal, AGACCCACAGTAATTAACCAGCGTAACCACCTTTCTTCCACGGAGTCACCTAGTGCAG shows 8350 fluorescence intensity (a.u.)
# For binding signal, CGTGTTCGACATGTTACGCATATTTGATCTGTTCATGTTTCGGAGTCACCTAGTGCAG shows 9890 fluorescence intensity (a.u.)

# (listing goes on)

row,Sequence,binding signal
1,TCACTGGTTTGCTGGAGGTACAACTTGAAGCAGCACATTTCGGAGTCACCTAGTGCAG,8140 fluorescence intensity (a.u.)
2,CACTTTTCCTGTCTTTCATGTCGTCCTATATAAAGGCACACGGAGTCACCTAGTGCAG,9810 fluorescence intensity (a.u.)
3,CTTTGCTTTTGTTTACGGTTCACGCCACGGCGCGAGTTTCCGGAGTCACCTAGTGCAG,8420 fluorescence intensity (a.u.)
4,TAAGTAAAATTCATACTCTCTCTATCTTGGAACATGTCTACGGAGTCACCTAGTGCAG,8530 fluorescence intensity (a.u.)
5,CCACTTGTTTTTTTGTTTTGTTTGTGTAACCGATATGTGGCGGAGTCACCTAGTGCAG,8840 fluorescence intensity (a.u.)
6,CCCCTGCTTCCGTGTGCTGCTGGTCTTGCTTCGCTTCGATCGGAGTCACCTAGTGCAG,8650 fluorescence intensity (a.u.)
7,AGGGTTTGTCTTTTTTTTTTTGGACGGAGGGAGTAGGCCACGGAGTCACCTAGTGCAG,8520 fluorescence intensity (a.u.)
8,CTCTCCGCGTCACTTCTCTTCCACCTCTTGTAGTAGCTGCCGGAGTCACCTAGTGCAG,9890 fluorescence intensity (a.u.)
9,ATCATCTCGGTCCAAAGCCGCATTTGACCGTGGTCTTGCCCGGAGTCACCTAGTGCAG,12000 fluorescence intensity (a.u.)
10,GGTTCTAGTGAGCTTTATCTCTTTTTTTCATGTGATTTTTCGGAGTCACCTAGTGCAG,10200 fluorescence intensity (a.u.)
11,ACTTTTTTCTTCAAACTTCCAATTTTAGTCAAACTTTCAACGGAGTCACCTAGTGCAG,8550 fluorescence intensity (a.u.)
12,GCATGCGCGGGAGAGGGCAAAGGGTGGGGCCGGGCTGTCGCGGAGTCACCTAGTGCAG,13000 fluorescence intensity (a.u.)
13,ATGTTTTCCGTGTGTTTTAGCTCAGTTATGTTCTGTTCAACGGAGTCACCTAGTGCAG,12600 fluorescence intensity (a.u.)
14,TTTTATCTACTTTAAATATATTTAGCCTTTTACTTTTATACGGAGTCACCTAGTGCAG,8530 fluorescence intensity (a.u.)
15,CAGGGCGGCGTTCTCGATGTGCTCGGGGCAGGGGCGGACGCGGAGTCACCTAGTGCAG,16100 fluorescence intensity (a.u.)
16,TCCTACAACTCTCGTATTTCCAATTTTCCAAACAACTATCCGGAGTCACCTAGTGCAG,8160 fluorescence intensity (a.u.)
17,CTCATCTACCTCCTCAGCTTCTTCGGCATCGCCTTCGTGCCGGAGTCACCTAGTGCAG,8720 fluorescence intensity (a.u.)
18,TGCCTCCGGGGATGCCGTCACTTTCTCGTTCCCCAACTCCCGGAGTCACCTAGTGCAG,12200 fluorescence intensity (a.u.)
19,AATTACCCATCTTTGCACTTCTATATATAATATATGCAACCGGAGTCACCTAGTGCAG,11000 fluorescence intensity (a.u.)
20,CTCCCACCGCCCACCGCCCACCGCCGCGCCGGCCATGGCTCGGAGTCACCTAGTGCAG,9840 fluorescence intensity (a.u.)
21,CCTCTCCTCTCGCTCCGCTCTCTCTCCTGCCCAAGCGACGCGGAGTCACCTAGTGCAG,10200 fluorescence intensity (a.u.)
